The target of the assay is Human factor Xa (human, UniProt P00742 41-179; P00742 235-488, limits assumed). As to the kind of experiment: plate binding assay: peptide coated on microtiter wells, bound factor Xa detected with chromogenic substrate.

By UniProt entry, the sequences of proteins in these tests, tags left out. Where a name states a change or a piece, a line headed by the entry shows the natural chain unless it says otherwise.
UniProt P00742: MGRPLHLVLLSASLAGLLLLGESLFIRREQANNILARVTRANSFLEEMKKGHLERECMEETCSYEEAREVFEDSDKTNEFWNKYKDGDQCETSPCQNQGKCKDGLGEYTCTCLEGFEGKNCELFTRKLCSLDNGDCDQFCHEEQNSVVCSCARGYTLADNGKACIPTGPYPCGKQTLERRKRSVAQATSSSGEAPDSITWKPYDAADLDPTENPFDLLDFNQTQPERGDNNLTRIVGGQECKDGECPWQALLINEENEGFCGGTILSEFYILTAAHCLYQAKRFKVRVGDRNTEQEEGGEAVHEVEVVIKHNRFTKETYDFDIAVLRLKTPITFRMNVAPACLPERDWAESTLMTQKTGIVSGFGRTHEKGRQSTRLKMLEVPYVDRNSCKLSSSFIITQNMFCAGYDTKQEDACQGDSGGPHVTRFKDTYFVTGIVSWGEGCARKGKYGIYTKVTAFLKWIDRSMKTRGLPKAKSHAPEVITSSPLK

Results are given in words; binding and its absence hold for the method and conditions named. A result given as binding can be weak or reduced; the word gives no strength.

In the case of ARCRGFLARVEYQRMVERREAIFCIQYNIRSFMNVKHWPW (C-terminal amide (-NH2)) [Peptide HC796-835 (human skeletal muscle myosin heavy chain MYH2 residues 796-835)], the binding result is on record as “binds”.

The record behind these values is patent US20220340629A1, “Myosin Derived Peptides and Related Compounds with Anticoagulant Activities” (THE SCRIPPS RESEARCH INSTITUTE, priority 0001, published 2022).
